This is one part of the list.
Assays:
Test in all cases: log2 fold change, soluble protein after heating vs DMSO (PISA); higher = thermal stabilisation; K562 cells, 10 uM, 30 min; active = over 0.2 and 3.5 SD of the protein, either way, in both replicates (recomputed)
[1] = compound: CC1=C(C=C(C=C1)NC(=O)C2=CC(=CC=C2)C(C)(C)C#N)NC3=CC4=C(C=C3)N=CN(C4=O)C
Method in brief: (§1)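 K562 cells at 2×10^6 cells/mL were treated for 30 min with 10 μM compound, and aliquots were heated for 3 min over 48°C-58°C before pooling. Extraction used PBS with 0.5% NP-40 at 4°C, and soluble protein was the supernatant after 21,000xg for 90 min, measured by TMTpro 16plex LC-MS/MS with channel sums equalised. Thermal stability values, relative to control samples and from duplicates, are log2 fold changes.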

The chains behind the UniProt entries cited, without tags or fusion partners. Where a name states a change or a piece, a line headed by the entry shows the natural chain unless it says otherwise.
UniProt P07311: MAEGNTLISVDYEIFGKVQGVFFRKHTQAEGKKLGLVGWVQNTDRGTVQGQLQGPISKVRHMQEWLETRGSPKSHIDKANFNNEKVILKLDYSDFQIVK
UniProt Q53FZ2: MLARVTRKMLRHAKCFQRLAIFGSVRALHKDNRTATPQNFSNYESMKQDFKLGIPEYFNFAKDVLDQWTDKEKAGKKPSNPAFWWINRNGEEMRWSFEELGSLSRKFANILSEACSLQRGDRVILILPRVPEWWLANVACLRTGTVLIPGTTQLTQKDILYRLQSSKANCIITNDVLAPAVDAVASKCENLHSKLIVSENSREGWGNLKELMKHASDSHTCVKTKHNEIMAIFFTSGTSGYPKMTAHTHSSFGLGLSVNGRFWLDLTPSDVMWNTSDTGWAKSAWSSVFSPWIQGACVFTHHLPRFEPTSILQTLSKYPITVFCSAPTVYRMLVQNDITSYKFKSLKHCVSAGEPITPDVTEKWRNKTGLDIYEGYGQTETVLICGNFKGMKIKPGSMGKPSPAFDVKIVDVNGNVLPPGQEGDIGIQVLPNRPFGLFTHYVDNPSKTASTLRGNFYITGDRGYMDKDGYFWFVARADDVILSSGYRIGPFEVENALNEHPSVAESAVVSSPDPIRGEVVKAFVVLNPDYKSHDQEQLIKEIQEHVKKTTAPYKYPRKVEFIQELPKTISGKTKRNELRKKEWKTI
UniProt Q9NPJ3: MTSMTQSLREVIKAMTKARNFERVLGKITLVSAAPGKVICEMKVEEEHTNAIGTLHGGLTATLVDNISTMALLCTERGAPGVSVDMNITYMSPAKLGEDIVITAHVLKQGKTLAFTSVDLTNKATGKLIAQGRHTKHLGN
UniProt P33121: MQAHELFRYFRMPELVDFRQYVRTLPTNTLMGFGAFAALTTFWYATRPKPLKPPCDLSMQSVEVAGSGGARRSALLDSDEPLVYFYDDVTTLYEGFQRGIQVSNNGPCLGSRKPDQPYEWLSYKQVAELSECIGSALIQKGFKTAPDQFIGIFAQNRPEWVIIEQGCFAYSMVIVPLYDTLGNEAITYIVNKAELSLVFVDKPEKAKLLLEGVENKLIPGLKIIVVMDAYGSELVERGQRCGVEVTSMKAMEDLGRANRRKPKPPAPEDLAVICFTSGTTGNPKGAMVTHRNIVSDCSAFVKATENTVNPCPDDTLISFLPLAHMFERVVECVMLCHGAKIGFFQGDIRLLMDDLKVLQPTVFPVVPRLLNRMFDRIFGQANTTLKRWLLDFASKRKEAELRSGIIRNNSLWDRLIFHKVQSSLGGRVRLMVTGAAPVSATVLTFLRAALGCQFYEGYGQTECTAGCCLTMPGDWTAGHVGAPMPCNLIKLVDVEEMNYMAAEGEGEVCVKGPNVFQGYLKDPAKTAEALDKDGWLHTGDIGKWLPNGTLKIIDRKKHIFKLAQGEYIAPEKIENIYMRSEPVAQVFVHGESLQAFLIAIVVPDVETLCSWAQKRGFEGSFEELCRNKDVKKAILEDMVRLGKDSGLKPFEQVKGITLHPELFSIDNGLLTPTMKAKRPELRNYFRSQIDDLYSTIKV
UniProt Q99798: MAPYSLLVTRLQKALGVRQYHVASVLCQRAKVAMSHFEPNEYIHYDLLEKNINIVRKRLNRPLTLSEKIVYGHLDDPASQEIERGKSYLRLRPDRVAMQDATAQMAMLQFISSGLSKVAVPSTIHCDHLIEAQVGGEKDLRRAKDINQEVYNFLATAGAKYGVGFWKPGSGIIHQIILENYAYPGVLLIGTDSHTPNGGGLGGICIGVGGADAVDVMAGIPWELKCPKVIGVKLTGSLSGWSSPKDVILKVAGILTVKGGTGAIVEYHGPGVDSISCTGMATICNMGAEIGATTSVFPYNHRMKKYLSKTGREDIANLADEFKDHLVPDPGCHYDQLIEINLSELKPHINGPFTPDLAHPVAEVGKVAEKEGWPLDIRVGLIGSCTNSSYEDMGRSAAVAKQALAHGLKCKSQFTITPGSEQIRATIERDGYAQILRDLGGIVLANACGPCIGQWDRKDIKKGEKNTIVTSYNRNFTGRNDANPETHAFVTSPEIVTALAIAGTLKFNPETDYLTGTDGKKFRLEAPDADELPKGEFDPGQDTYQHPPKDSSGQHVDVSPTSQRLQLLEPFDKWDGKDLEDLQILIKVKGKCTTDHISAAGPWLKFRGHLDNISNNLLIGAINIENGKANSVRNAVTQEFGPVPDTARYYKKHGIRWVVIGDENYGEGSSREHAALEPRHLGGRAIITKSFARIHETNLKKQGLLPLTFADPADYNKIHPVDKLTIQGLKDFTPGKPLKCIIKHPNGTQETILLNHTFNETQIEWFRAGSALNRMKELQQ
UniProt O00154: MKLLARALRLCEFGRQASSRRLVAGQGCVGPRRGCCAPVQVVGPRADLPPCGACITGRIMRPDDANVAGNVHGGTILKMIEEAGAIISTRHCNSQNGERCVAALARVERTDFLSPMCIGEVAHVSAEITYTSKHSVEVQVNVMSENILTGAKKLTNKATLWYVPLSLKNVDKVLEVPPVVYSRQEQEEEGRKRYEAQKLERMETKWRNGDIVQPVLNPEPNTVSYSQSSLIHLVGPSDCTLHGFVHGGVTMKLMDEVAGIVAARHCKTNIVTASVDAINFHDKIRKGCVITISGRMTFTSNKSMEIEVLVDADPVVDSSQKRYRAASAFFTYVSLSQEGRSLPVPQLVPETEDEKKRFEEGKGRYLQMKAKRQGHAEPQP
UniProt Q9NYB9: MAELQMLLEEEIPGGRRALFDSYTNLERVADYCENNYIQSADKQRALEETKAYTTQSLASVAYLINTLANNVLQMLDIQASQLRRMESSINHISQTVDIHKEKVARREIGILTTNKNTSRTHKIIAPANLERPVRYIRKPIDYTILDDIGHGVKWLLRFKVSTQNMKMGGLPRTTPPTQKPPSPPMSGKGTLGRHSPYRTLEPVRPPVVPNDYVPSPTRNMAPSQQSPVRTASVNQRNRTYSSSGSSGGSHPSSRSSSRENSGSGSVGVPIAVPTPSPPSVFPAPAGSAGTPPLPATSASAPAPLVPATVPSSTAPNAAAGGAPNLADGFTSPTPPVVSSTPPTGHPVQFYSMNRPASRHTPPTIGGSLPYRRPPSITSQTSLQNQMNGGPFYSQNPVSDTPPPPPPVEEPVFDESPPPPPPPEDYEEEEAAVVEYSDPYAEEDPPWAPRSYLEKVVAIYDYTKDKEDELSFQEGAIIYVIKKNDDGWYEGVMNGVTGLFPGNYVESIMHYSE
UniProt Q9NRN7: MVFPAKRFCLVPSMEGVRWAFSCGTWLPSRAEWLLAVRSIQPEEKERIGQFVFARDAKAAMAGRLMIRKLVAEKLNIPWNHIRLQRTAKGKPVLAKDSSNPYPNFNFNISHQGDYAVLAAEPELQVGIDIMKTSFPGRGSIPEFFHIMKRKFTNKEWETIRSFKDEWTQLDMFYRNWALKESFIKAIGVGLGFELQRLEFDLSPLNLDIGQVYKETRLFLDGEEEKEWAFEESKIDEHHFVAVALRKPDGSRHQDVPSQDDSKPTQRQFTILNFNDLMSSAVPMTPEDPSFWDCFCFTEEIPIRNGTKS
UniProt Q9NUT2: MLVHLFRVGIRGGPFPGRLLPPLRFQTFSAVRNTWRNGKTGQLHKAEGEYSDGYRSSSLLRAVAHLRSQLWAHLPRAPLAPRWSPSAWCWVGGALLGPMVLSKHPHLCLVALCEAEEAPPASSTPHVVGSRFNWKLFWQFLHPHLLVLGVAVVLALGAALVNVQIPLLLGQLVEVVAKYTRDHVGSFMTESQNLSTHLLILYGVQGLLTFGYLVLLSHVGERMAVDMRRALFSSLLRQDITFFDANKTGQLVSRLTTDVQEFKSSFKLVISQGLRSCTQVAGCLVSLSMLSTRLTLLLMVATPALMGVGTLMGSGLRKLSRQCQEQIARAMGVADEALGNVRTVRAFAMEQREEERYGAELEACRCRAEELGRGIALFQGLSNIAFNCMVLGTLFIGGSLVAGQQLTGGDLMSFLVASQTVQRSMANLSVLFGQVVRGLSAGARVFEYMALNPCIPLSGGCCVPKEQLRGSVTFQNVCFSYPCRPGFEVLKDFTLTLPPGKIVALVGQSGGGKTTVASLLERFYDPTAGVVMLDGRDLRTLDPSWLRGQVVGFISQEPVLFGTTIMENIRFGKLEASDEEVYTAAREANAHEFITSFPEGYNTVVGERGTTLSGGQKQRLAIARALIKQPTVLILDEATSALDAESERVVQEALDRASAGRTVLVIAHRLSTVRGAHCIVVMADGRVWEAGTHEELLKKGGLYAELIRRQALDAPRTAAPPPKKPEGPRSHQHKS
UniProt P42765: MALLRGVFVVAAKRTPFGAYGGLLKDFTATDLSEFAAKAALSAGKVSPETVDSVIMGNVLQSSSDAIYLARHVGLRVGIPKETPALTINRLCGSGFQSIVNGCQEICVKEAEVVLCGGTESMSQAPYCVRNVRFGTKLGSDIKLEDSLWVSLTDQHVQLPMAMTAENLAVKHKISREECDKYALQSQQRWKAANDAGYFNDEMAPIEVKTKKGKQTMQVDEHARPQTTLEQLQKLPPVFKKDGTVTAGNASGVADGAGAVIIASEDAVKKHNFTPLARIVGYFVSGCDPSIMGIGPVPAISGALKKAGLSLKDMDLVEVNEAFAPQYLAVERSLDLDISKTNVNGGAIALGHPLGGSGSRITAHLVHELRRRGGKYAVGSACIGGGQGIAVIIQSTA
UniProt Q9NZ32, whole entry, looked up: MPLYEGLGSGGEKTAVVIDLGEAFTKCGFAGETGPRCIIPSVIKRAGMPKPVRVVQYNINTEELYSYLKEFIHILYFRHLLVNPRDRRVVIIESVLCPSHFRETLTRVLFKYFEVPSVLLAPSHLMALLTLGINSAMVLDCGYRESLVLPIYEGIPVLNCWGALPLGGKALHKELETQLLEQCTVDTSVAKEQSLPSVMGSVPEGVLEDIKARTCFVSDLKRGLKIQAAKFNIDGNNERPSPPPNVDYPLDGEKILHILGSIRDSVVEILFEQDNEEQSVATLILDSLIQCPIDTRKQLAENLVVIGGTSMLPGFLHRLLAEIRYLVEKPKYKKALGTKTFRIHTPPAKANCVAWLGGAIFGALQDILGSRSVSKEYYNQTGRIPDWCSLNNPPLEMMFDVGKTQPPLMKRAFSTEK
UniProt Q7Z6V5: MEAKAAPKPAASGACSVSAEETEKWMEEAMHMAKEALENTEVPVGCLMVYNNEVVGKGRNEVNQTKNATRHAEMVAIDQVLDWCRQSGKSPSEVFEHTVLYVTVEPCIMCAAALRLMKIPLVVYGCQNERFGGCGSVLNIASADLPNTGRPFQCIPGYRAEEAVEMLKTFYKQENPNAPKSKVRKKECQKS
UniProt Q2M2I8: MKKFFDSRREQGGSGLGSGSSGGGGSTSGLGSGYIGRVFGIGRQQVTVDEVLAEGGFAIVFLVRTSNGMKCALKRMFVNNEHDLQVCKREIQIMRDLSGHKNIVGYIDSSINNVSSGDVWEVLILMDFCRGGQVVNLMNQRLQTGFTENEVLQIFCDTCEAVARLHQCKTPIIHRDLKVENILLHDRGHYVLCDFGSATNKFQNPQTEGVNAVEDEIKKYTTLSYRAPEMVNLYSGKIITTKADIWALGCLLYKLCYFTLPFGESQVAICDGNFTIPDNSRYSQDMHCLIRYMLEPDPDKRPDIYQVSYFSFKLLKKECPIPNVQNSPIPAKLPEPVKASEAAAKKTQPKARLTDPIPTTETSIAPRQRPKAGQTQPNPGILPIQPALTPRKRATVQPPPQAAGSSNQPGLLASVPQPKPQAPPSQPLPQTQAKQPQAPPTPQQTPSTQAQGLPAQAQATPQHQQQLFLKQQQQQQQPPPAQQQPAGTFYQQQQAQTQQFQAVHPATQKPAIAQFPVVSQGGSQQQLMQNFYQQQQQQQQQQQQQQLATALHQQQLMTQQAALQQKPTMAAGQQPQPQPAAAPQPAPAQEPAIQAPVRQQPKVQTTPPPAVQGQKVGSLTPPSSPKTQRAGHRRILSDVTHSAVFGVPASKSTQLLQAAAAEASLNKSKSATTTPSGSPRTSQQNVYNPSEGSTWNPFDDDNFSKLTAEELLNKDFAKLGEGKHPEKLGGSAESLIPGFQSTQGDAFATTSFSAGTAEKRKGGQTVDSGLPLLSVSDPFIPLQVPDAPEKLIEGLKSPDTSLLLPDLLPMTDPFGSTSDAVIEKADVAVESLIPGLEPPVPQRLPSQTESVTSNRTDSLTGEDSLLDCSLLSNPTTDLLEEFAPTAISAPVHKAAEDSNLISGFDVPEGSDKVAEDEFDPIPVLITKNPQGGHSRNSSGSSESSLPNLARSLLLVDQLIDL
UniProt Q96GS6: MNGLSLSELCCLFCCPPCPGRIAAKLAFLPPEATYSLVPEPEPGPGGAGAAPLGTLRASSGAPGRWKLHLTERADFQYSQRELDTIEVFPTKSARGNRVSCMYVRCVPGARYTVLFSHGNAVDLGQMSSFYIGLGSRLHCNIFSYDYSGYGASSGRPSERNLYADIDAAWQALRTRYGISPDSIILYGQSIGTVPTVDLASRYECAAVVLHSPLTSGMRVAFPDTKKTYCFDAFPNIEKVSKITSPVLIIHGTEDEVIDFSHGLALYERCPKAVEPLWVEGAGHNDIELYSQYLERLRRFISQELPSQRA

[2] = compound: CC1=C(C=C(C=C1)NC(=O)C2=CC(=CC=C2)N(C)C)NC(=O)C3=CC=C(C=C3)O
Method in brief: as §1

[3] = compound: CC1=CC=C(C=C1)SC2=C3C=C(SC3=CN=C2)C(=O)N
Method in brief: as §1

[4] = compound: CC1=NC(=CC=C1)C2=C(N=C(N2)C(C)(C)C)C3=CC4=NC=CN=C4C=C3
Method in brief: as §1

Nexturastat A = compound: CCCCN(Cc1ccc(C(=O)NO)cc1)C(=O)Nc1ccccc1 [Nexturastat A]
Method in brief: as §1

vemurafenib = compound: CCCS(=O)(=O)Nc1ccc(F)c(C(=O)c2c[nH]c3ncc(-c4ccc(Cl)cc4)cc23)c1F [vemurafenib]
Method in brief: as §1

[5] = compound: CCCS(=O)(=O)Nc1ccc(F)c(C(=O)c2c[nH]c3ncc(Cl)cc23)c1F
Method in brief: as §1

[6] = compound: CCCc1cc(C)[nH]c(=O)c1CNC(=O)c1cc(-c2ccnc(N3CCN(C)CC3)c2)cc2c1cnn2C(C)C
Method in brief: as §1

givinostat = compound: CCN(CC)Cc1ccc2cc(COC(=O)Nc3ccc(C(=O)NO)cc3)ccc2c1 [givinostat]
Method in brief: as §1

barasertib = compound: CCN(CCCOc1ccc2c(Nc3cc(CC(=O)Nc4cccc(F)c4)[nH]n3)ncnc2c1)CCOP(=O)(O)O [barasertib]
Method in brief: as §1

Measured: log2 fold change

ACOX1 isoform 2 (UniProt Q15067)
inactive: [1] 0.031 | [2] 0.016 | [3] 0.021 | [4] 0.041 | Nexturastat A -0.041 | vemurafenib -0.014 | [5] 0.027 | [6] -0.004 | givinostat -0.074 | barasertib -0.015

ACSL3 (UniProt O95573)
inactive: [1] 0.005 | [2] -0.051 | [3] 0.1 | [4] 0.029 | Nexturastat A 0.008 | vemurafenib 0 | [5] 0.038 | [6] -0.016 | givinostat 0.032 | barasertib 0.039

ACYP1 (UniProt P07311)
inactive: [1] 0.004 | [2] -0.027 | [3] -0.016 | [4] 0.039 | Nexturastat A 0.007 | vemurafenib 0.017 | [5] 0.018 | [6] -0.047 | givinostat -0.011 | barasertib 0.013

ACSM3 (UniProt Q53FZ2)
inactive: [1] -0.069 | [2] -0.056 | [3] 0.019 | [4] -0.029 | Nexturastat A -0.096 | vemurafenib 0.033 | [5] 0.036 | [6] 0.018 | givinostat 0.039 | barasertib 0.103

ABRAXAS2 (UniProt Q15018)
inactive: [1] -0.041 | [2] 0.023 | [3] -0.004 | [4] 0.022 | Nexturastat A -0.092 | vemurafenib -0.051 | [5] -0.024 | [6] -0.055 | givinostat -0.03 | barasertib -0.016

AASDH (UniProt Q4L235)
inactive: [1] -0.001 | [2] 0.024 | [3] -0.043 | [4] -0.056 | Nexturastat A 0.179 | vemurafenib 0.094 | [5] 0.103 | [6] 0.149 | givinostat 0.033 | barasertib 0.09

ACOT13 (UniProt Q9NPJ3)
inactive: [1] 0.006 | [2] 0.028 | [3] 0.017 | [4] 0.09 | Nexturastat A 0.044 | vemurafenib -0.023 | [5] 0.021 | [6] 0.018 | givinostat 0.003 | barasertib -0.02

ACSL1 (UniProt P33121)
inactive: [1] 0.01 | [2] 0.01 | [3] 0.031 | [4] 0.056 | Nexturastat A -0.115 | vemurafenib -0.021 | [5] 0.041 | [6] -0.018 | givinostat -0.034 | barasertib -0.002

ACACB (UniProt O00763)
inactive: [1] -0.037 | [2] 0.01 | [3] 0.006 | [4] -0.065 | Nexturastat A 0.344 | vemurafenib 0.108 | [5] 0.012 | [6] 0.152 | givinostat 0.149 | barasertib 0.06

ACACA isoform 4 (UniProt Q13085)
inactive: [1] -0.026 | [2] 0.007 | [3] 0.017 | [4] -0.058 | Nexturastat A 0.265 | vemurafenib 0.022 | [5] 0.035 | [6] 0.119 | givinostat 0.163 | barasertib 0.087

ACTR3 (UniProt P61158)
inactive: [1] -0.026 | [2] -0.014 | [3] 0.017 | [4] 0.006 | Nexturastat A -0.056 | vemurafenib 0.025 | [5] 0.01 | [6] 0.021 | givinostat -0.055 | barasertib 0.014

ACO2 (UniProt Q99798)
inactive: [1] 0.071 | [2] -0.063 | [3] 0.012 | [4] 0.035 | Nexturastat A -0.073 | vemurafenib 0.055 | [5] 0.027 | [6] -0.003 | givinostat -0.014 | barasertib 0.037

ABCC5 (UniProt O15440)
inactive: [1] 0.107 | [2] -0.033 | [3] 0.035 | [4] -0.073 | Nexturastat A 0.007 | vemurafenib -0.183 | [5] -0.031 | [6] 0.1 | givinostat 0.028 | barasertib 0.026

ACSS2 isoform 2 (UniProt Q9NR19)
inactive: [1] -0.008 | [2] -0.027 | [3] -0.013 | [4] 0.008 | Nexturastat A -0.051 | vemurafenib 0 | [5] 0.018 | [6] 0.128 | givinostat -0.02 | barasertib 0.037

ACOT7 isoform 7 (UniProt O00154)
inactive: [1] -0.008 | [2] 0.01 | [3] 0.014 | [4] -0.018 | Nexturastat A -0.063 | vemurafenib 0 | [5] 0.026 | [6] 0.017 | givinostat 0.006 | barasertib 0

ACLY (UniProt P53396)
inactive: [1] -0.008 | [2] 0.013 | [3] 0.011 | [4] 0.016 | Nexturastat A -0.058 | vemurafenib 0.01 | [5] 0.01 | [6] 0.013 | givinostat -0.035 | barasertib 0.019

9 neighbouring records already listed, quoted:
AASDH (UniProt Q4L235)
inactive: [1] -0.001 | [2] 0.024 | [3] -0.043 | [4] -0.056 | Nexturastat A 0.179 | vemurafenib 0.094 | [5] 0.103 | [6] 0.149 | givinostat 0.033 | barasertib 0.09

ACOT13 (UniProt Q9NPJ3)
inactive: [1] 0.006 | [2] 0.028 | [3] 0.017 | [4] 0.09 | Nexturastat A 0.044 | vemurafenib -0.023 | [5] 0.021 | [6] 0.018 | givinostat 0.003 | barasertib -0.02

ACSL1 (UniProt P33121)
inactive: [1] 0.01 | [2] 0.01 | [3] 0.031 | [4] 0.056 | Nexturastat A -0.115 | vemurafenib -0.021 | [5] 0.041 | [6] -0.018 | givinostat -0.034 | barasertib -0.002

ACACB (UniProt O00763)
inactive: [1] -0.037 | [2] 0.01 | [3] 0.006 | [4] -0.065 | Nexturastat A 0.344 | vemurafenib 0.108 | [5] 0.012 | [6] 0.152 | givinostat 0.149 | barasertib 0.06

ACACA isoform 4 (UniProt Q13085)
inactive: [1] -0.026 | [2] 0.007 | [3] 0.017 | [4] -0.058 | Nexturastat A 0.265 | vemurafenib 0.022 | [5] 0.035 | [6] 0.119 | givinostat 0.163 | barasertib 0.087

ACTR3 (UniProt P61158)
inactive: [1] -0.026 | [2] -0.014 | [3] 0.017 | [4] 0.006 | Nexturastat A -0.056 | vemurafenib 0.025 | [5] 0.01 | [6] 0.021 | givinostat -0.055 | barasertib 0.014

ACO2 (UniProt Q99798)
inactive: [1] 0.071 | [2] -0.063 | [3] 0.012 | [4] 0.035 | Nexturastat A -0.073 | vemurafenib 0.055 | [5] 0.027 | [6] -0.003 | givinostat -0.014 | barasertib 0.037

ABCC5 (UniProt O15440)
inactive: [1] 0.107 | [2] -0.033 | [3] 0.035 | [4] -0.073 | Nexturastat A 0.007 | vemurafenib -0.183 | [5] -0.031 | [6] 0.1 | givinostat 0.028 | barasertib 0.026

ACSS2 isoform 2 (UniProt Q9NR19)
inactive: [1] -0.008 | [2] -0.027 | [3] -0.013 | [4] 0.008 | Nexturastat A -0.051 | vemurafenib 0 | [5] 0.018 | [6] 0.128 | givinostat -0.02 | barasertib 0.037

Remaining list, next part:

ABI2 (UniProt Q9NYB9)
inactive: [1] 0.003 | [2] 0.017 | [3] -0.006 | [4] 0.05 | Nexturastat A -0.094 | vemurafenib -0.007 | [5] 0.02 | [6] -0.034 | givinostat 0.07 | barasertib 0.02

AASDHPPT (UniProt Q9NRN7)
inactive: [1] -0.07 | [2] -0.02 | [3] -0.003 | [4] -0.001 | Nexturastat A -0.053 | vemurafenib 0.016 | [5] 0.016 | [6] -0.034 | givinostat -0.072 | barasertib 0.045

AARS (UniProt P49588)
inactive: [1] 0.032 | [2] 0.005 | [3] 0.018 | [4] 0.06 | Nexturastat A -0.072 | vemurafenib 0.004 | [5] 0.026 | [6] 0.013 | givinostat -0.053 | barasertib 0.015

ABCF2 isoform 2 (UniProt Q9UG63)
inactive: [1] 0.03 | [2] 0.015 | [3] -0.048 | [4] 0.04 | Nexturastat A -0.005 | vemurafenib 0 | [5] 0.003 | [6] -0.021 | givinostat -0.013 | barasertib -0.002

ABCB8 (UniProt Q9NUT2)
inactive: [1] 0.024 | [2] -0.023 | [3] -0.028 | [4] -0.042 | Nexturastat A -0.075 | vemurafenib -0.018 | [5] 0.009 | [6] 0.007 | givinostat 0.004 | barasertib 0.031

AAR2 (UniProt Q9Y312)
inactive: [1] -0.01 | [2] -0.026 | [3] -0.032 | [4] -0.035 | Nexturastat A 0.074 | vemurafenib -0.018 | [5] 0.021 | [6] -0.105 | givinostat 0.018 | barasertib -0.023

AAAS (UniProt Q9NRG9)
inactive: [1] 0.027 | [2] 0.019 | [3] 0.012 | [4] 0.038 | Nexturastat A -0.011 | vemurafenib 0.061 | [5] 0.038 | [6] 0.006 | givinostat 0.009 | barasertib 0.019

ACAA2 (UniProt P42765)
inactive: [1] -0.009 | [2] 0.026 | [3] -0.005 | [4] -0.012 | Nexturastat A -0.04 | vemurafenib -0.026 | [5] -0.003 | [6] -0.028 | givinostat 0.01 | barasertib -0.007

ACTR10 (UniProt Q9NZ32)
inactive: [1] -0.017 | [2] -0.011 | [3] -0.047 | [4] -0.059 | Nexturastat A 0.008 | vemurafenib 0 | [5] -0.024 | [6] 0.001 | givinostat -0.033 | barasertib 0.066

ADAT2 (UniProt Q7Z6V5)
inactive: [1] 0.039 | [2] -0.008 | [3] 0.064 | [4] 0.105 | Nexturastat A -0.088 | vemurafenib 0.023 | [5] 0.024 | [6] -0.041 | givinostat -0.082 | barasertib 0.035

AAK1 (UniProt Q2M2I8)
inactive: [1] 0.01 | [2] 0 | [3] 0.032 | [4] 0.015 | Nexturastat A -0.021 | vemurafenib 0.147 | [5] -0.028 | [6] 0.08 | givinostat 0.042 | barasertib -0.034

ABHD17A isoform 2 (UniProt Q96GS6)
inactive: [1] -0.004 | [2] -0.031 | [3] 0.035 | [4] -0.068 | Nexturastat A 0.034 | vemurafenib -0.039 | [5] -0.032 | [6] -0.021 | givinostat -0.313 | barasertib 0.016

ABHD16A (UniProt O95870)
inactive: [1] 0.01 | [2] -0.084 | [3] -0.051 | [4] -0.057 | Nexturastat A 0.118 | vemurafenib -0.001 | [5] -0.036 | [6] 0.09 | givinostat 0.037 | barasertib 0.008

Source: the supplement of paper PMC10849652
